Screen size: about 360,000 compounds; about 1,700 (0.47%) were called active. Inconclusive means that the source gave no clear call. Such entries were picked first, then a sample of the others. The call rests on the fitted dose curve; in most records, active means well fitted inhibition curve with a large enough effect; inconclusive means small, poorly fitted or top-dose-only effect; inactive means no such curve, though single readings can be large or run the other way. A potency beside an inconclusive call is a rough fit, not a confirmed value.
molecular target: Bifunctional 3'-5' exonuclease/ATP-dependent helicase WRN (Homo sapiens) (UniProt Q14191); assay: qHTS for Inhibitors of WRN Helicase; conditions: WRN helicase unwinding, fluorescent forked duplex, kinetic; series mostly up to 114 µM; further: nearly all actives have a fitted effect of over 55% in size
Outline: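 Kinetic fluorescence helicase assay: unwinding of a quenched forked DNA duplex (100 nM final) with 2 mM ATP final raises red fluorescence (525/598 nm). Compounds sat 15 min at room temperature with 20 nM WRN beforehand.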
Potency means the concentration at half of the fitted maximal effect.

Protein sequences, listed by entry. Tags and fused reporters are not part of them.
UniProt Q14191, whole entry, looked up: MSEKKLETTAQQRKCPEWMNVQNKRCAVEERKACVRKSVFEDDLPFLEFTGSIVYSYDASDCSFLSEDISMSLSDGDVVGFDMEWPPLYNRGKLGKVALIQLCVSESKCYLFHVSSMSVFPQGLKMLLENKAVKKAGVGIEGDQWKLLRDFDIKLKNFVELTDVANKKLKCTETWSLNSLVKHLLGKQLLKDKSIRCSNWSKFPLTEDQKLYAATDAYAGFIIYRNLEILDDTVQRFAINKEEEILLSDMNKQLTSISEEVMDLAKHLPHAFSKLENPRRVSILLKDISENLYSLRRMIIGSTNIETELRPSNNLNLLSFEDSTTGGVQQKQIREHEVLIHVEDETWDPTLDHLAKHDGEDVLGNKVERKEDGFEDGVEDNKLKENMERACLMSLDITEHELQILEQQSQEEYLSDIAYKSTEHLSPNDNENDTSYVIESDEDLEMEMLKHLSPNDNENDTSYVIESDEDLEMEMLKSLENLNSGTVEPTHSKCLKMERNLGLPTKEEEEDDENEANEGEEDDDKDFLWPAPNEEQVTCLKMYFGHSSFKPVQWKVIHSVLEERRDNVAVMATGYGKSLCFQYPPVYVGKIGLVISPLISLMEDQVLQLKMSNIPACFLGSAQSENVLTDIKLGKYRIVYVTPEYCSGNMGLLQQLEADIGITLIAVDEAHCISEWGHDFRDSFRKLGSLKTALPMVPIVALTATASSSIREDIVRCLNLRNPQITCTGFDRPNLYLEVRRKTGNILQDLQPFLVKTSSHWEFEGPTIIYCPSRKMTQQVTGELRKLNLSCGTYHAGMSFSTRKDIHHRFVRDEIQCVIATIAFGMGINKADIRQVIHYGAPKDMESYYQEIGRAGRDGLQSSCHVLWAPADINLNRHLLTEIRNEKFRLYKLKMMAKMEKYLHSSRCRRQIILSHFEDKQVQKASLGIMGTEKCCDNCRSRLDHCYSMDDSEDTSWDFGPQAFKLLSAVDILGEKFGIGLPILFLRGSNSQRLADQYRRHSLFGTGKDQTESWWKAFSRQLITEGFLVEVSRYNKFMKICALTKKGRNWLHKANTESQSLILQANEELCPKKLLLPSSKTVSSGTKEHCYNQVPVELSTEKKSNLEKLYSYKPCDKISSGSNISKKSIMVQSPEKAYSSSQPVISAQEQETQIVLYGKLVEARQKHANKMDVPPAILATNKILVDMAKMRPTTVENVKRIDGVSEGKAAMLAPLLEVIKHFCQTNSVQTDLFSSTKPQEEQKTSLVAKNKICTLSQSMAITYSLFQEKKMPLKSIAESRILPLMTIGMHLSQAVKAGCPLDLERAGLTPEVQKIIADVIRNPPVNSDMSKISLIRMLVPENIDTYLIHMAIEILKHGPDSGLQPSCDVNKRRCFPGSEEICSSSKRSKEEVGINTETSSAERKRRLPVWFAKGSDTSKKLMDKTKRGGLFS

SMILES | Potency
CCO/C=C1\SC(=S)N(c2ccc(Cl)cc2)C1=O | inconclusive: 50.1 µM [inhibitor, partial curve]
COc1ccc(/C=C2\C(=O)NC(=S)N2C(=O)c2ccc(C)cc2)cc1 | active: 56.2 µM
O=c1nccc(Nc2ccccc2)[nH]1 | inactive
Cc1ccc(NC(=O)CC2S/C(=N/N=C3/NC(=O)CS3)NC2=O)cc1 (stereo not drawn) | inconclusive: 39.8 µM [inhibitor, single point]
CCOC(=O)c1ccc(-c2ccc(C3Nc4ccccc4C(=O)N3O)o2)cc1 (stereo not drawn) | inconclusive: 11.2 µM [inhibitor, partial curve]
COc1cc(/C=N/N2C(=O)CSC2=S)cc(Br)c1O | active: 50.1 µM
C=CCN1C(=O)/C(=C/C=C2/N(CC)c3ccc(S(=O)(=O)N(C)C)cc3N2CC)SC1=S | active: 5.32 µM
COc1ccc2cc(Br)ccc2c1CC(=O)N1CCCC1 | inconclusive: 10 µM [inhibitor, full curve, poor fit]
CCN(CC)c1ccc(/C=C(/C#N)c2nc3ccc(C)cc3[nH]2)c(OC(C)C)c1 | inconclusive: 56.2 µM [inhibitor, partial curve]
O=C1C(Cl)=C(N2CCCCC2)C(=O)C(Cl)=C1c1cnc(N2CCCCC2)s1 | inconclusive: 56.2 µM [inhibitor, partial curve]
CCc1ccc(S(=O)(=O)Nc2cccc(-c3ccc4nnc(C)n4n3)c2)s1 | inconclusive: 44.7 µM [inhibitor, full curve, poor fit]
CCc1sc(C(C2C(=O)CC(C)(C)CC2=O)C2C(=O)CC(C)(C)CC2=O)cc1[N+](=O)[O-] | active: 31.6 µM
COc1cc(NC(=O)c2noc3c2CCC3)c(OC)cc1Cl | inconclusive: 11.9 µM [inhibitor, partial curve]
COc1cccc(/C=C/C(=O)OCC(=O)Nc2cccc(S(=O)(=O)N3CCCCC3)c2)c1OC | inconclusive: 39.8 µM [inhibitor, single point]
CCN(C(=O)COC(=O)CNC(=O)c1ccc2ccccc2c1)c1c(N)n(Cc2ccccc2)c(=O)[nH]c1=O | inconclusive: 22.4 µM [inhibitor, single point]
O=C(CSc1nc2ccsc2c(=O)n1NC(=O)c1ccccc1)NCc1ccco1 | inconclusive: 39.8 µM [inhibitor, partial curve]
Oc1c(Cl)cc(Cl)cc1C=Nc1ccc(N2CCOCC2)cc1 | inconclusive: 79.4 µM [inhibitor, single point]
O=C(COC(=O)c1ccc(OC(F)(F)F)cc1)Nc1ncccn1 | inconclusive: 12.6 µM [inhibitor, full curve, poor fit]

Individual results from the list:
Potency, `O=C(COC(=O)c1ccc(OC(F)(F)F)cc1)Nc1ncccn1` is entered as inconclusive: 12.6 µM [inhibitor, full curve, poor fit]
Potency, `Oc1c(Cl)cc(Cl)cc1C=Nc1ccc(N2CCOCC2)cc1` is entered as inconclusive: 79.4 µM [inhibitor, single point]

— PubChem BioAssay AID651768 (National Center for Advancing Translational Sciences (NCATS), 2012)
